Test results reported in PubChem BioAssay AID493014 (National Center for Advancing Translational Sciences (NCATS), 2011).
Screen size: about 340,000 compounds; about 170 (0.05%) were called active. Inconclusive results, whose numbers are uncertain, are shown with a selection of clear calls. Calls follow the shape of the dose curve; as a rule, active = well fitted inhibition curve with a large enough effect in the signal ratio, with a control signal flat (not every such curve was filed as active); inconclusive = small, poorly fitted or top-dose-only effect, or effect the other way, or a change in a side signal; inactive = flat fitted curve, though single readings scatter; the % refers to the signal ratio. Potencies beside an inconclusive call are fits to weak or partial responses and may not hold up.

Experiment: qHTS Assay to Find Inhibitors of Chronic Active B-Cell Receptor Signaling;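 as to activity change, negative = inhibition: plate controls were basal doxycycline-induced cells for no effect and cells given 10 µM MG132 for full effect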
Conditions: ABC-DLBCL IkBa-CBG/CBR reporter, luminescence ratio (green luciferase fused to IkBa over red control in TMD8 lymphoma cells), 4 h; activity change, negative = inhibition: at 46.1 µM (top of the series)
In short: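 Cell line TMD8 (human ABC DLBCL), stably expressing tet-inducible CBG68-IkBa fusion and CBR; IMDM/0.5% FBS; cpd up to 46 uM; dox induction, 4 h, 37C/5% CO2; dual luminescence; green/red ratio; MG132 control.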
Potency is read from the fitted curve at half-maximal effect.

SMILES | activity change, negative = inhibition | Potency
O=[N+]([O-])c1cccc(S(=O)(=O)N/N=C/c2ccc(O)cc2)c1 | inconclusive: -7.31% | –
O=C(NCc1cccnc1)C1CC(c2cccc(Br)c2)=NO1 (stereo unspecified) | inactive: -3.42% | –
O=C(C#Cc1ccccc1)Nc1ccccc1F | – | inconclusive: 35.5 µM [rising, single point]
O=S(=O)(c1ccc2oc3ccccc3c2c1)N1CCOCC1 | inconclusive: 9.55% | –
O=c1c2ccccc2c2ccccc2c(=O)n1Cc1cccnc1 | inconclusive: -6.13% | –
CC(C)CN(C(=O)COC(=O)c1cccc2ccccc12)c1c(N)n(Cc2ccccc2)c(=O)[nH]c1=O | inactive: 6.5% | –
Cc1nnc(SCCC(C)C)[nH]c1=O | – | inconclusive: 17.8 µM [falling, partial curve, poor fit]
CCSc1nnc(NC(=O)C2CCCN(S(=O)(=O)c3cnc[nH]3)C2)s1 (stereo unspecified) | – | inconclusive: 13 µM [falling, partial curve]
CCOc1ccc(S(=O)(=O)NCCC(=O)NCc2cccnc2)cc1 | inactive: -1.69% | –
COc1ccc(-n2nc(C(=O)NCC(=O)N3CCN(c4ccccn4)CC3)c3ccccc3c2=O)cc1OC | inconclusive: 2% | –
CCOC(=O)c1nc(Nc2ccc(Nc3ccccc3)cc2)c2ccccc2n1 | inconclusive: -20.2% | –
Cc1cccc(OCC(=O)Nc2ccc(S(=O)(=O)Nc3onc(C)c3C)cc2)c1C | inactive: 3.16% | –
COc1ccc(-c2ccc(SCC(=O)NC3CCCCC3)nn2)cc1OC | inconclusive: -24% | –
N#CCCN(Cc1cccnc1)C(=O)Nc1ccccc1 | inconclusive: 0.961% | –
O=C(NCc1cccs1)C1CC(c2ccc(Cl)c(Cl)c2)=NO1 (stereo unspecified) | inconclusive: -6.2% | –
Cc1ccccc1NC(=O)Cc1nc(COC(=O)c2cc([N+](=O)[O-])ccc2N)cs1 | inconclusive: -11.5% | –
O=C(Nc1ccccc1-c1nnn(CC(=O)N2CCCc3ccccc32)n1)c1ccco1 | inconclusive: 1.73% | –
COc1ccc(C(O)c2nccn2Cc2ccccc2)cc1OC (stereo unspecified) | inconclusive: -0.897% | –
CC(C)C1CC(CCNCc2ccc(N(C)C)cc2)(c2ccccc2)CCO1 (stereo unspecified) | inconclusive: -9.19% | –
COc1ccc(C)cc1NC(=O)Nc1ccc(C(=O)N2CCCC2)cc1 | inactive: -12.9% | –
O=C(c1ccco1)n1nc(-c2ccco2)nc1SCc1ccccc1 | – | inconclusive: 29.1 µM [falling, single point]
CCN(/N=C/c1cccs1)c1cc(=O)n(C)c(=O)[nH]1 | inactive: 1.5% | –
Cc1ccc(OCc2ccccc2C)c([N+](=O)[O-])n1 | – | inconclusive: 10 µM [falling, partial curve, poor fit]
COc1cc(-n2nc(C)c3c2OC(N)=C(C#N)C3c2ccccc2)c(Cl)c(Br)c1O (stereo unspecified) | – | inconclusive: 0.58 µM [rising, partial curve, poor fit]
Nc1ncnc2c1nc(SCCO)n2Cc1ccccc1 | – | inconclusive: 11.2 µM [falling, partial curve, poor fit]
Cc1ccc2cc(C)c3nnc(SCC(=O)Nc4nc5c(s4)CCCC5)n3c2c1C | inconclusive: -14.5% | –
COC(=O)c1c(NC(=O)C(C)(C)C)sc2c1CCN(Cc1ccccc1)C2 | – | inconclusive: 17.8 µM [rising, partial curve, poor fit]

SMILES | activity change, negative = inhibition | Potency
COc1ccc(C(=O)N/N=C\c2ccoc2)cc1 | inconclusive: -13.3% | –
CCS(=O)(=O)Nc1ccc(C2=NN(C(=O)c3ccccc3)C(c3cccs3)C2)cc1 (stereo unspecified) | inconclusive: -14% | –
Cc1ccc(Cl)cc1NC(=S)NCc1cccn1C | inactive: 2.76% | –
COc1ccc(-c2ccc(OC)c([C@H]3[C@@H]4C=CCC[C@@]4(C)C(=O)N3Cc3ccccc3)c2)cc1OC | inconclusive: -15.8% | –
O=C(OCC(=O)N1CCCc2ccccc21)c1cccc(C(F)(F)F)c1 | inconclusive: 6.17% | –
COc1ccc(CNC(=O)COC(=O)c2c(-c3c(F)cccc3Cl)noc2C)cc1OC | inactive: -12.3% | –
CCNC(=S)Nc1cc(OCC)c(NC(=O)c2cccs2)cc1OCC | inconclusive: -11.2% | –
Cc1ccc(-c2cc(C(=O)Nc3cccnc3)[nH]n2)c(O)c1C | – | inconclusive: 17.8 µM [falling, partial curve]
Cc1ccc(S(=O)(=O)NNC(=O)Nc2cccc(F)c2)c(C)c1 | inconclusive: 9.94% | –
Cc1c(C(=O)c2ccc(F)cc2)c2ccccn2c1CCc1ccccn1 | inactive: 0.0254% | –
CN1CCc2cccc3c2[C@H]1Cc1ccc(O)c(O)c1-3 | inconclusive: -25.7% | inconclusive: 2.31 µM [cytotoxic, full curve]
CN(c1ccccc1)S(=O)(=O)c1cccc(C(=O)NCCc2ccc(O)c(O)c2)c1 | inconclusive: -18.7% | –
Cc1c(C)n(CC(O)CN2CCCCCC2)c2ccccc12 (stereo unspecified) | inconclusive: -5.1% | –
Cc1cc(C)nc(NN=C2CCCC2)n1 | inconclusive: 17.8% | –
Cc1ccc(COC(=O)c2ccc3ccccc3n2)cc1 | inconclusive: 18.2% | –
C[C@H](CO)N1C[C@H](C)[C@@H](CN(C)S(C)(=O)=O)Oc2ccc(NC(=O)CCC(F)(F)F)cc2C1=O | inactive: -0.268% | –
CCOc1ccc(NC(=O)c2ccccc2CO)cc1 | – | inconclusive: 25.9 µM [falling, partial curve, poor fit]
Nc1cc(-c2cccc([N+](=O)[O-])c2)[nH]n1 | inconclusive: 3.04% | –
CC(=O)N(CC(=O)Nc1sc(C)c(C)c1C(N)=O)Cc1ccccc1 | inactive: -6.71% | –
COc1cccc(CNc2nc3nc(C)c(Cl)c(=O)n3[nH]2)c1 | – | inconclusive: 11.2 µM [falling, partial curve]
COc1cc(/C=C(\C#N)c2nc3ccccc3s2)cc([N+](=O)[O-])c1O | inactive: 2.91% | –
Cn1c(N)c(C(=O)c2ccc(Cl)cc2)c(=O)n(C)c1=O | inconclusive: 3.16% | –
Cc1ccc(S(=O)(=O)N2CCCC2C(=O)OCC(=O)Nc2ccc3c(c2)OCO3)cc1 (stereo unspecified) | inconclusive: -2.5% | –
Cc1nn(CC(=O)NNC(=S)NCC2CCCO2)c(C)c1Br (stereo unspecified) | inconclusive: -35% | –
CC(=O)N1CCN(c2ccc(NC(=O)c3ccc(C(C)(C)C)cc3)cc2)CC1 | – | inconclusive: 29.1 µM [falling, single point]
Cc1cc(C)n2nc(SC(C)C(=O)N(C)C3CCCCC3)nc2n1 (stereo unspecified) | inactive: -0.825% | –
O=C(CCCOc1ccccc1)N1CCCCC1 | – | inconclusive: 0.517 µM [rising, partial curve, poor fit]

SMILES | activity change, negative = inhibition | Potency
O=S(=O)(NCc1ccco1)c1ccc2ccccc2c1 | inconclusive: 2.9% | –
CC1CCCCN1CC(=O)Nc1cc(S(=O)(=O)N2CCOCC2)ccc1N1CCCC1 (stereo unspecified) | inconclusive: 6.25% | –
COc1ccc(C(=O)NCc2nnc(SCC(=O)c3ccccc3)n2C)cc1 | inconclusive: 4.88% | –
CC(C)(C)NC(=O)c1oc2ccccc2c1COc1ccccc1 | inconclusive: 9.14% | –
CC(C)CC(=O)Nc1nnc(CCc2ccccc2)s1 | inconclusive: 2.38% | –
CC(C)(C)CC(=O)OCC(=O)Nc1cc(C(C)(C)C)nn1-c1ccccc1 | – | inconclusive: 8.2 µM [falling, partial curve]
CCOC(=O)c1cc(-c2ccc(N3CCOCC3)cc2)nn1-c1ccccc1 | – | inconclusive: 29.1 µM [falling, single point]
Cn1cc(/C=N/NC(=O)COc2ccccc2[N+](=O)[O-])c2ccccc21 | – | inconclusive: 29.1 µM [falling, partial curve, poor fit]
CC(C)C(=O)NC(=S)/C=C1/N(C)c2ccccc2C1(C)C | – | inconclusive: 35.5 µM [falling, partial curve, poor fit]
N#CC1=C(N)N(c2ccc(Br)cc2)C2=C(C(=O)CCC2)C1c1cccnc1 (stereo unspecified) | – | inconclusive: 4.11 µM [falling, partial curve, poor fit]
Cc1ccc(NC(=O)c2cc(N3C(=O)C=CC3=O)ccc2N2CCOCC2)cc1Cl | inconclusive: 12.4% | –
COc1ccccc1/C=C/c1onc(C)c1S(=O)(=O)N1CCC(C(=O)N2CCC(C)CC2)CC1 | – | inconclusive: 6.31 µM [falling, single point]
COc1cccc(CN2CC(C(=O)NCCN3CCOCC3)CCC2=O)c1 (stereo unspecified) | inactive: 5.54% | –
COc1cccc(OC)c1C(=O)Nc1ccccc1N1CCCCC1 | inconclusive: -10.2% | –
Nc1nonc1-n1nnc(C(=O)N/N=C/c2cc(Br)ccc2O)c1CNc1ccccc1 | inactive: 4.34% | –
CNC(=O)CC1C(=O)N(c2ccc(Cl)cc2)C(=S)N1CCc1ccc(OC)c(OC)c1 (stereo unspecified) | – | inconclusive: 25.1 µM [cytotoxic, partial curve]
Cc1cc2nccc(-c3ccncc3)n2n1 | inactive: -0.271% | –
N=c1n(CC(=O)O)c2ccccc2n1Cc1ccccc1Cl | inactive: -2.97% | –
CCNC(=S)N(Cc1ccco1)Cc1cc2cc(OCC)ccc2[nH]c1=O | – | inconclusive: 8.91 µM [falling, partial curve]
O=C1CN(S(=O)(=O)c2cccc(Br)c2)CCN1 | inconclusive: 7.45% | –
CCOC(=O)c1cc(=O)n2[nH]c(-c3ccc(C)cc3)cc2n1 | – | inconclusive: 7.31 µM [falling, partial curve]
O=C(NCC1CCCO1)c1ccc2c(=O)n(Cc3cccc(Br)c3)c(=S)[nH]c2c1 (stereo unspecified) | inactive: -1.69% | –
O=C(Cc1ccccc1)NCC(=O)Nc1cccc(Br)c1 | inconclusive: 0.242% | –
CCOC(=O)c1nc(Nc2cc(C)cc(C)c2)c2ccccc2n1 | inconclusive: 0.204% | –
CC(=O)c1ccc(NC(=O)C2(S(=O)(=O)c3ccccc3)CC2)cc1 | inconclusive: -3.73% | –
O=C(NCc1ccccc1)C(c1ccco1)N(C(=O)c1ccccn1)c1ccc(F)cc1 (stereo unspecified) | – | inconclusive: 12.6 µM [falling, partial curve, poor fit]

Reprinted at random: 4 records from the list, in no set order.
SMILES | activity change, negative = inhibition | Potency
CN(c1ccccc1)S(=O)(=O)c1cccc(C(=O)NCCc2ccc(O)c(O)c2)c1 | inconclusive: -18.7% | –
O=C(OCC(=O)N1CCCc2ccccc21)c1cccc(C(F)(F)F)c1 | inconclusive: 6.17% | –
Cc1cc2nccc(-c3ccncc3)n2n1 | inactive: -0.271% | –
COc1ccc(-c2ccc(OC)c([C@H]3[C@@H]4C=CCC[C@@]4(C)C(=O)N3Cc3ccccc3)c2)cc1OC | inconclusive: -15.8% | –
